In patent US7691907B2, “Methods and composition based on discovery of metabolism of nitroglycerin” (priority 2002, dated 2010):
At least one structure is not confirmed: it was looked up by name or label, or the drawing left a doubt.

Test system: patient
Settings: human, in vivo

SMILES: CCN(CC)C(=S)SSC(=S)N(CC)CC [disulfiram]
- clinical outcome: no effect on blood pressure
